These are yes or no findings as the source states them, for the method shown. Binding seen in cells or lysates may run through a third protein. A yes stands for co-enrichment or nearness to the bait. Other partners may have been found. Tags and fused reporters may be left off the sequences shown.
Assays:
V5-TurboID-IRF1 (mouse) = target: T1, V5-TurboID-IRF1 (mouse) (UniProt P15314); assay: proximity labelling; TurboID; V5-TurboID-IRF1 (IRF1-BirA*) in Irf1-/- RAW 264.7 cells, Dox 4 h, untreated or IFNβ or IFNγ 3 h, 500 µM biotin 10 min; nuclear extracts, streptavidin beads, mass spectrometry; log2FC >= 0.5 above BirA*-NLS control, Padj <0.05
T1 sequence: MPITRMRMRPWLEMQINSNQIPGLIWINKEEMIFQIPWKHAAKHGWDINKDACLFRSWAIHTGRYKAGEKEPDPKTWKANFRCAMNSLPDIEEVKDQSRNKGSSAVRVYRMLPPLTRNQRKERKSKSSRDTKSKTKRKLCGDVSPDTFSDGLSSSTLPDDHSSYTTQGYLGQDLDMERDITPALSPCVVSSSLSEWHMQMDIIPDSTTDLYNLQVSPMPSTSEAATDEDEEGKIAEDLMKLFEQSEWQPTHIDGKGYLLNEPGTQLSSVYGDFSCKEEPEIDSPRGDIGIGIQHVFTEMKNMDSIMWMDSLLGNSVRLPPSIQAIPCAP

STAT1-TurboID-V5 (mouse) = target: T2, STAT1-TurboID-V5 (mouse) (UniProt P42225); assay: proximity labelling; TurboID; STAT1-TurboID-V5 (STAT1-BirA*) in Stat1-/- RAW 264.7 cells, Dox 24 h, untreated or IFNβ or IFNγ 3 h, 500 µM biotin 10 min; nuclear extracts, streptavidin beads, mass spectrometry; log2FC >= 1 above BirA*-NLS control, Padj <0.05
T2 sequence: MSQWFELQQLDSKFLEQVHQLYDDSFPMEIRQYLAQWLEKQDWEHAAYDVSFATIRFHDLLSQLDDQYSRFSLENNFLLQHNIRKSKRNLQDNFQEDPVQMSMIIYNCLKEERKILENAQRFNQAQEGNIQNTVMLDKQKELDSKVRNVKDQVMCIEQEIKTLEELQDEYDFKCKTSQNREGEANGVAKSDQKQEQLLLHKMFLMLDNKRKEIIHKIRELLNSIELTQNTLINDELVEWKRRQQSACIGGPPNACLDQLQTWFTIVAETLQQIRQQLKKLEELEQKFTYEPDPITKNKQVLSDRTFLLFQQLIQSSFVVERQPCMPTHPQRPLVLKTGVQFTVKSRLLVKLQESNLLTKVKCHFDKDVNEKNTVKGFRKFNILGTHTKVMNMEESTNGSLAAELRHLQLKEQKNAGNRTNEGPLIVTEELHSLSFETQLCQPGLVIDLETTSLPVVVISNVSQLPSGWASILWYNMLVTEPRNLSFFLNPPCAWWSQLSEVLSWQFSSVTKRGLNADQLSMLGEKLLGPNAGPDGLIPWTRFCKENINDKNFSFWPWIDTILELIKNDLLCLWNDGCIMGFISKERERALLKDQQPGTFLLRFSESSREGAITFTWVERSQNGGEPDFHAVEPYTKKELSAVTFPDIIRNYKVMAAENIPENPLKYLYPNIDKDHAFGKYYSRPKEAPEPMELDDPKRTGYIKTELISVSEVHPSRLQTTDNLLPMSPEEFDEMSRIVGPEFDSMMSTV

B1: ATF3 (protein, UniProt Q60765 1-181)
chain: MMLQHPGQVSASEVSATAIVPCLSPPGSLVFEDFANLTPFVKEELRFAIQNKHLCHRMSSALESVTVNNRPLEMSVTKSEAAPEEDERKRRRRERNKIAAAKCRNKKKEKTECLQKESEKLESVNAELKAQIEELKNEKQHLIYMLNLHRPTCIVRAQNGRTPEDERNLFIQQIKEGTLQS
With B1 the binding (V5-TurboID-IRF1 (mouse)) was “binds” and the binding (STAT1-TurboID-V5 (mouse)) was “binds”.

Source: article PMC11148166
